Experimental data taken from US20170218369.
For some of these results: Where a protein sequence is shown, tags need not be part of it.

Protein sequences, listed by entry. Tags and fused reporters are not part of them. Residues count along the entry.
UniProt Q15116, 25-288: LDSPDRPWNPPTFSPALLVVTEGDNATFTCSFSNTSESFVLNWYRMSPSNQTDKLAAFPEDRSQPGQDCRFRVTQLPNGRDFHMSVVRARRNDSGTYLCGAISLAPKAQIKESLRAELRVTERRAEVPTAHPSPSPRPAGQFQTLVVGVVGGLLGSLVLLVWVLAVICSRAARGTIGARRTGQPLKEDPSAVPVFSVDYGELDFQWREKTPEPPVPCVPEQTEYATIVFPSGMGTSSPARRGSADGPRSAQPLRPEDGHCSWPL

Assays:
PD-1 on T cells / PBMC = PD-1 on T cells / PBMC (UniProt Q15116); experiment: activity in cells; conditions: protein on the cell surface, single-stranded DNA, dose not given here
[1] = target: T1, PD-1 on mouse spleen T cells (Mus musculus) (UniProt Q02242); experiment: activity in cells; conditions: 40 nM; increased CD8+ but not CD4+ T-cell proliferation; protein on the cell surface; single-stranded DNA
T1 sequence (looked up, limits assumed): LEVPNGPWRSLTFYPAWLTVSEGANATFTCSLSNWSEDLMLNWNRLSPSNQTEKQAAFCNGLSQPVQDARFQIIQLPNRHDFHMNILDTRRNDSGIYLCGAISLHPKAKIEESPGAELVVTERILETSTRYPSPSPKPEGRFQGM

[2] = increased T cell proliferation vs control

TCCCTACGGCGCTAACCATCATCGATATTGACACAACCATCTCCCTGCCACCGTGCTACAAC [PD13]
functional effect of the aptamer (PD-1 on T cells / PBMC; [2]): active

TCCCTACGGCGCTAACTGATCACAAGAATAACTATCCCATCTCCCTGCCACCGTGCTACAAC [PD16]
functional effect of the aptamer (PD-1 on T cells / PBMC; [2]): active

TCCCTACGGCGCTAACTCCATCTCCCTTGTAACGTTGCTTCCTCTTGCCACCGTGCTACAAC [PD9]
functional effect of the aptamer (PD-1 on T cells / PBMC; [2]): active

TCCCTACGGCGCTAACTCCTGCATCCATCTCCCTCTGTTAGTTTTGGCCACCGTGCTACAAC [PD6]
functional effect of the aptamer (PD-1 on T cells / PBMC; [2]): active

TCCCTACGGCGCTAACGTAATTCCATCTCCCTCACAGATTGCTAACGCCACCGTGCTACAAC [PD8]
functional effect of the aptamer (PD-1 on T cells / PBMC; [2]): active

TCCCTACGGCGCTAACCGTCATCGTTAATATATTGTCCTCGCATAAGCCACCGTGCTACAAC [PD24]
functional effect of the aptamer (PD-1 on T cells / PBMC; [2]): active

CCATCTCCCATTTTTTTTTTT [PEGylated dimer (core + polyT)]
functional effect of the aptamer (PD-1 on T cells / PBMC; two copies conjugated one at each end of linear 20 kDa PEG, PBMC proliferation greater than PD-1 antibody): active

CCATCTCCCA [Core sequence (10 nt)]
functional effect of the aptamer (PD-1 on T cells / PBMC; PBMC proliferation greater than PD-1 antibody): active

TCCCTACGGCGCTAACCTTCCATCTCCCATGCTTAGTCAAACATACGCCACCGTGCTACAAC [PD7]
functional effect of the aptamer (PD-1 on T cells / PBMC; strongest T cell proliferation increase, over 30% above PD-1 antibody): active | functional effect of the aptamer [1]: active
